According to patent publication US12565505B2, “mTORC modulators and uses thereof” (Aeovian Pharmaceuticals, Inc., priority 2019, dated 2026):
Structures were worked out from names or drawings and are uncertain.

Biological target: mTORC1 (Homo sapiens, UniProt P42345+P62942)
Test: Inhibition assay for mTORC1: phosphorylation of pS6K at Thr389, AlphaLISA SureFire in PC3 cells
Assay type: cell-based
Details: treated 24 hours, Rapamycin analogs substituted at C40

COC1CC2CCC(C)C(O)(O2)C(=O)C(=O)N2CCCCC2C(=O)OC(C(C)CC2CCC(OC(=O)NCCCc3ccccc3)C(OC)C2)CC(=O)C(C)C=C(C)C(O)C(OC)C(=O)C(C)CC(C)C=CC=CC=C1C (stereo not shown) was tested, and the “pIC50 mTORC1” value was “A (PIC50 for mTORC1 of >9.5 as A)”.
